Paper PMC7819943, “Rice protein-binding microarrays: a tool to detect cis-acting elements near promoter regions in rice”
The list shows a part of the results.

Each sequence was assayed against T1, OsSMF1 (Oryza sativa, UniProt Q6ZLB0 1-436) (assay: protein-binding microarray (RPBM); PBS, 2% BSA, 51.3 ng/ul salmon testes DNA, 50 uM zinc acetate, 200 nM TF, 25 C, 1 h; high values mean tight binding). Details: protein: recombinant; tags: N-terminal polyhistidine and DsRed monomer fusion (pET32a); chain copies: 2; label: CyDye5-dUTP incorporated in the synthesized complementary strand; 3' TTTTT single-stranded linker to array surface; dsDNA, one strand shown.
T1 sequence: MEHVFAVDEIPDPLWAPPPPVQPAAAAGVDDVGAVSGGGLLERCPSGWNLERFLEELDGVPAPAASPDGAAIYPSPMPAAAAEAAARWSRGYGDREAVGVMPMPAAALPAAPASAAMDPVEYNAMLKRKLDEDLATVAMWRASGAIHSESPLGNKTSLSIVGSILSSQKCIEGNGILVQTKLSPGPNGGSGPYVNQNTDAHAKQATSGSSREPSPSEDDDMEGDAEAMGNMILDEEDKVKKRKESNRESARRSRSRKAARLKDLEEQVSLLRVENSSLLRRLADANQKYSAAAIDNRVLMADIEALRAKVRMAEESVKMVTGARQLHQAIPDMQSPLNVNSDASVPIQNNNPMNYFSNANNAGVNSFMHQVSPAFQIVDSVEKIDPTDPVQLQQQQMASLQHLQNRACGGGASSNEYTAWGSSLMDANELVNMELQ
Summary of the method: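 Transcription factors, each fused N-terminally to a polyhistidine tag and DsRed, were expressed in E. coli BL21-CodonPlus and purified on Ni–NTA. A custom Agilent array was made double-stranded by primer extension with Cy5-dUTP and blocked with 2% BSA. It was incubated with 200 nM protein in PBS, 2% BSA, salmon testes DNA and 50 µM zinc acetate at 25 °C for 1 h, then washed. The binding signal is per-feature fluorescence intensity (arbitrary units) read on an Axon 4000B scanner.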

Sequence	binding signal
CGCCGCCTGCCCCTGCGCCTGCAGCCTCTGCGCCTCCTGCCGGAGTCACCTAGTGCAG	3560 fluorescence intensity (a.u.)
GCAGAGCTAAGAAAGTATGGCACGTCACAGTTGCGATCAGCGGAGTCACCTAGTGCAG	5050 fluorescence intensity (a.u.)
GCCCTCCGCGTCCCGCCGGCGTCGCTGCTCGAGGTCGGCACGGAGTCACCTAGTGCAG	3870 fluorescence intensity (a.u.)
TCCCGAACGTTCCATTCAGCACACGTCGACATCGACTTTGCGGAGTCACCTAGTGCAG	4330 fluorescence intensity (a.u.)
GATGTCCCGGCCGTCCACGTGGCCCGATGGAATGCTGCTCCGGAGTCACCTAGTGCAG	17900 fluorescence intensity (a.u.)
CGCGCTGCTGCTGCTGCTGATGCTGTCGCAGTACACTCCCCGGAGTCACCTAGTGCAG	3140 fluorescence intensity (a.u.)
ATGCTTACCTCATTGCAGCTAGTCCACCATCAATTCCACTCGGAGTCACCTAGTGCAG	3750 fluorescence intensity (a.u.)
TTTATGCGGCGTGGACAGTCCCCGTCGCACCGACATGTGGCGGAGTCACCTAGTGCAG	3240 fluorescence intensity (a.u.)
AGCTAGGCAAAAGCGCCGCATCTGACTGCTTCGTCGCTTTCGGAGTCACCTAGTGCAG	3560 fluorescence intensity (a.u.)
TGAATTTATTAAGCCTAATTAATCCGCCATTAGCACGTGTCGGAGTCACCTAGTGCAG	3520 fluorescence intensity (a.u.)
CTTCAGATACGTGGACAGCAACGTGTGCAAGGACACGTGTCGGAGTCACCTAGTGCAG	13800 fluorescence intensity (a.u.)
TTAATGCATACTGACAGCTGTTTATGTGCTTCAAATTTACCGGAGTCACCTAGTGCAG	4700 fluorescence intensity (a.u.)
GTACAAGCTATACACGTGGTTTCATGTCTTGGCGCTTTATCGGAGTCACCTAGTGCAG	6570 fluorescence intensity (a.u.)
TGCGCGCTGCACGGCCGCACCCAATAATCTTCCTCTCCGTCGGAGTCACCTAGTGCAG	23300 fluorescence intensity (a.u.)
AACGATGAGGTGTACATTTTCTAGATTAGTCCTCCCTATCCGGAGTCACCTAGTGCAG	5950 fluorescence intensity (a.u.)
ATATCCGATGTGACACGGCAAAAGTTTTCACCCTAGATCTCGGAGTCACCTAGTGCAG	7800 fluorescence intensity (a.u.)
CTTCGAGTAGCGCACACGTGTGCGGTGCGCGGCACTACACCGGAGTCACCTAGTGCAG	4830 fluorescence intensity (a.u.)
GAGGAGAGGGAGAGAGGCTGCGAGTGGAGGCCACGTACGGCGGAGTCACCTAGTGCAG	6620 fluorescence intensity (a.u.)
CGTGTTCGATTCCGCTGCTATCCACGTCGCTACGCGCCACCGGAGTCACCTAGTGCAG	7020 fluorescence intensity (a.u.)
AATTGCTTTGCTGGCAGGGTGATGTGCCAATGGTTTCTTTCGGAGTCACCTAGTGCAG	5930 fluorescence intensity (a.u.)
ACTAAAATGATGACAACAAATCTACGCAGCTGCCTGCTTTCGGAGTCACCTAGTGCAG	4560 fluorescence intensity (a.u.)

Sequence	binding signal
CTGCCGCCCTAGTGGAGAGCGGCAAGCTGACGTGGCAAACCGGAGTCACCTAGTGCAG	20400 fluorescence intensity (a.u.)
TACCTAGGACGACACGATTACGCGTAATAATATTTGGAGACGGAGTCACCTAGTGCAG	3380 fluorescence intensity (a.u.)
GGGGATCCGATAGATGAGGTTTTCATATCGCTGATCACTCCGGAGTCACCTAGTGCAG	3190 fluorescence intensity (a.u.)
CCAGGTCAGATGATGACCACTCTCCTCGGCATTTCCGATTCGGAGTCACCTAGTGCAG	3840 fluorescence intensity (a.u.)
AGCGTCCACGTCTCCCCGACGATTGCTTTATAAAACCACCCGGAGTCACCTAGTGCAG	4670 fluorescence intensity (a.u.)
TGCTGCTTCGTCCCGGCCGTCGGCTACGCGCTCGGGTACACGGAGTCACCTAGTGCAG	3250 fluorescence intensity (a.u.)
CTATTTGTGTCTTGTGTACTTCAACGTCTTCCTCTTATGACGGAGTCACCTAGTGCAG	3680 fluorescence intensity (a.u.)
TTACGTATGCATGACTAATTGACATATCCATTATATTGGTCGGAGTCACCTAGTGCAG	8440 fluorescence intensity (a.u.)
AGCTCCGTGGAGATAAGCTTGCTCTCATACCATTTGCTGACGGAGTCACCTAGTGCAG	3590 fluorescence intensity (a.u.)
AGCGGGCCCACCTCCACCTCAGCCCAGTCGCCCGTTGCCGCGGAGTCACCTAGTGCAG	3380 fluorescence intensity (a.u.)
AATCCAACCCCAACCAATCATTCGCTGTGCATGTATGCAGCGGAGTCACCTAGTGCAG	19500 fluorescence intensity (a.u.)
GTCTGTGTATCAAGATGAAATATAACTATCAAAAGTAGATCGGAGTCACCTAGTGCAG	20400 fluorescence intensity (a.u.)
CCTTATCCTGTTGCTTGTCTGCTATCGTTGCCTCAGCAGGCGGAGTCACCTAGTGCAG	3470 fluorescence intensity (a.u.)
CATATCCTCAAGTAGAATTCAAATCCAGTCACATTGCCACCGGAGTCACCTAGTGCAG	4130 fluorescence intensity (a.u.)
ATGTCGTAGCTTTTAATTATATACTACTATAAATTTGATTCGGAGTCACCTAGTGCAG	43700 fluorescence intensity (a.u.)
GAGAGAGAGGGAGGGAGAGGCTGGCTGGGGAGACGGAACACGGAGTCACCTAGTGCAG	3460 fluorescence intensity (a.u.)
AGAAATCTAGGGTTTTCATCAGCTTTCTCCCTGCATAAAACGGAGTCACCTAGTGCAG	13600 fluorescence intensity (a.u.)
CAATACGTTGTTTCTATTCATTGATATCTTGACATCTTGTCGGAGTCACCTAGTGCAG	3220 fluorescence intensity (a.u.)
CGCTGACTCAGCCGCCATGTCAGCCAAAACTGGGGTCAAACGGAGTCACCTAGTGCAG	12700 fluorescence intensity (a.u.)
GCATGCATCATCTTATTGTCTAATTTTGAGAGAATTCACGCGGAGTCACCTAGTGCAG	6080 fluorescence intensity (a.u.)
ATATATATACGTGTTCTTATCTTAACGGTACACGTTACAGCGGAGTCACCTAGTGCAG	4540 fluorescence intensity (a.u.)

2 entries drawn at random from those above, as already listed:
Sequence	binding signal
TACCTAGGACGACACGATTACGCGTAATAATATTTGGAGACGGAGTCACCTAGTGCAG	3380 fluorescence intensity (a.u.)
CATATCCTCAAGTAGAATTCAAATCCAGTCACATTGCCACCGGAGTCACCTAGTGCAG	4130 fluorescence intensity (a.u.)
